doi:10.1101/559096
Results are given in words; binding and its absence hold for the method and conditions named. Binding seen in cells or lysates may run through a third protein. Some entries that bind do so weakly or less than the wild type.

Amino acid sequences for entries named in this document (tags omitted).
UniProt O14980: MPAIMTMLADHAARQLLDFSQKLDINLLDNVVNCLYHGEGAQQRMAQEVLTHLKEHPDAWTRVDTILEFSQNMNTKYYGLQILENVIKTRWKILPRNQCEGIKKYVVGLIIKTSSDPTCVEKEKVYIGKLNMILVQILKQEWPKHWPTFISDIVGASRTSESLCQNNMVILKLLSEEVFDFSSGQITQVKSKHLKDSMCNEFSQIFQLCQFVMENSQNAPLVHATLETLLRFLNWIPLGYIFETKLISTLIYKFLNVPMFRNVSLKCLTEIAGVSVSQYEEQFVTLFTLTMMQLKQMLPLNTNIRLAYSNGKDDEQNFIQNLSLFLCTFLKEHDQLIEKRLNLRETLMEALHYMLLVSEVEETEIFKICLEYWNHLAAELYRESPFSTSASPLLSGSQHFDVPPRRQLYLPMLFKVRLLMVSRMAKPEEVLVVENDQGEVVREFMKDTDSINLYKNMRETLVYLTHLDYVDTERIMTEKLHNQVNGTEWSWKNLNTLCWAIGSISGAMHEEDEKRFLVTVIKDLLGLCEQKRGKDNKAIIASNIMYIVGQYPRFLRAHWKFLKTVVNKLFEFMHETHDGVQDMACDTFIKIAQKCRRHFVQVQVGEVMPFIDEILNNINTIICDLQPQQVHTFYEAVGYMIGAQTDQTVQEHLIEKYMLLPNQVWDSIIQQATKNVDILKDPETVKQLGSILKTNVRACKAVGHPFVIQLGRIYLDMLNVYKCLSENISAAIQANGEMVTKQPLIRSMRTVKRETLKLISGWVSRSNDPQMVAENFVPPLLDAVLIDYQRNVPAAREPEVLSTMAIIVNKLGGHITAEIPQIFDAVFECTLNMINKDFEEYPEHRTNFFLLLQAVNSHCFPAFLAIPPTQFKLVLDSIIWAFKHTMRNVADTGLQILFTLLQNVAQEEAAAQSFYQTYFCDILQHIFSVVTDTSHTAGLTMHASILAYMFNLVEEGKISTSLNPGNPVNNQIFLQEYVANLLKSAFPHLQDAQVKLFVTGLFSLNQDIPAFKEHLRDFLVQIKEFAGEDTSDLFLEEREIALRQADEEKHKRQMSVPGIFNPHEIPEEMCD
UniProt P39687: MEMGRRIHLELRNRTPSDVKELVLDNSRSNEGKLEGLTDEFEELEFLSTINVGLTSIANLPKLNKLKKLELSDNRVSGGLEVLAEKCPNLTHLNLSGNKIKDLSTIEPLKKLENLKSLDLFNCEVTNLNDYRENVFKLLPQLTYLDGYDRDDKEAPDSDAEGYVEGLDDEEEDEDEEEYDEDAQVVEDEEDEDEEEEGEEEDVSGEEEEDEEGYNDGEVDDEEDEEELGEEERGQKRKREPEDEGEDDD
UniProt Q92688: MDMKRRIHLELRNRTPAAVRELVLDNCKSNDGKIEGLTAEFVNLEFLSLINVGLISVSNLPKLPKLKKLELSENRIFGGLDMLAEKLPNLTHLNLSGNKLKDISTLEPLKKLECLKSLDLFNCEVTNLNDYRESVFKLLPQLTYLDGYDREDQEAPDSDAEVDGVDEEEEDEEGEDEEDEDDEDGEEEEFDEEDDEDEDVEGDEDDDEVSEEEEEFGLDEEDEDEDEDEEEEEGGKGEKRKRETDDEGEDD

Columns and labels:
CRM1-VN-HA (human) = CRM1-VN-HA (human) (UniProt O14980); assay: split reporter
CRM1-HA (human) = CRM1-HA (human) (UniProt O14980); assay: co-IP

| binding (CRM1-VN-HA (human)) | binding (CRM1-HA (human)) | Substance |
| --- | --- | --- |
| binds |  | ANP32A-VC-FLAG (from UniProt P39687 1-249) |
|  | binds | ANP32A-Flag (from UniProt P39687 1-249) |
|  | binds | ANP32B-Flag (from UniProt Q92688 1-251) |
